Experimental data: the supplement of paper PMC10849652
The list shows a part of the results.

By UniProt entry, the sequences of proteins in these tests, tags left out. Where a name states a change or a piece, a line headed by the entry shows the natural chain unless it says otherwise.
UniProt O43390: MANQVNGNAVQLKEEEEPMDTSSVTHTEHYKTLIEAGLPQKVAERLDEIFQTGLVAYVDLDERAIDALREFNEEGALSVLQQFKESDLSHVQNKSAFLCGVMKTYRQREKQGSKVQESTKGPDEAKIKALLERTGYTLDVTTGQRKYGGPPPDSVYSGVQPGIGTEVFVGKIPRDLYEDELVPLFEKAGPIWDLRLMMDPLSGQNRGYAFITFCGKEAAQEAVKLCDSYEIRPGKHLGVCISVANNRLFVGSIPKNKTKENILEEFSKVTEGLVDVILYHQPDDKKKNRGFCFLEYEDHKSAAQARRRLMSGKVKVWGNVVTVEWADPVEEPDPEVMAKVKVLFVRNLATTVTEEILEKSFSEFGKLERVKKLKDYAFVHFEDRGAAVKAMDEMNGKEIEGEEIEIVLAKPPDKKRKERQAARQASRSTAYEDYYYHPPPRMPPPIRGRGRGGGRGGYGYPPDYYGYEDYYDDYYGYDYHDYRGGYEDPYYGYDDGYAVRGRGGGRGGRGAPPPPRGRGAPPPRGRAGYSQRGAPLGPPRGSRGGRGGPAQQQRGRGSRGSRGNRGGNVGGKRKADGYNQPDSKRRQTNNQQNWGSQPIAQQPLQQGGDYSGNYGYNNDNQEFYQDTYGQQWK
UniProt Q8IWL3: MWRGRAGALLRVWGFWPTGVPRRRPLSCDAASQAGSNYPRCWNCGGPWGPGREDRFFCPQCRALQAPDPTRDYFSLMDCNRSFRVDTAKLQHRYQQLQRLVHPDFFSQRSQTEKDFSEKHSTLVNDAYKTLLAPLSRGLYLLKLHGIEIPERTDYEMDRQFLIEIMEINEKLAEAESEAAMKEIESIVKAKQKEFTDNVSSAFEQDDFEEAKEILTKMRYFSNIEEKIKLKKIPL
UniProt Q7LGA3: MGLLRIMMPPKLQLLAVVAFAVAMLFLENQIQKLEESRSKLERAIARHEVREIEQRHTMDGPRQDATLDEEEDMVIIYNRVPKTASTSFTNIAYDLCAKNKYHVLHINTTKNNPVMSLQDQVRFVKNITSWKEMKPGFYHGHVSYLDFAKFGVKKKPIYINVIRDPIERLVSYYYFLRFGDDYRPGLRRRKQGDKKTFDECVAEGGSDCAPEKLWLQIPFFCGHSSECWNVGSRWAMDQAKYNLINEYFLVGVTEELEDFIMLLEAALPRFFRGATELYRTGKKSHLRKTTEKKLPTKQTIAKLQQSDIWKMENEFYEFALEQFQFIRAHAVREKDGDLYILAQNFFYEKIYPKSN
UniProt Q53FT3: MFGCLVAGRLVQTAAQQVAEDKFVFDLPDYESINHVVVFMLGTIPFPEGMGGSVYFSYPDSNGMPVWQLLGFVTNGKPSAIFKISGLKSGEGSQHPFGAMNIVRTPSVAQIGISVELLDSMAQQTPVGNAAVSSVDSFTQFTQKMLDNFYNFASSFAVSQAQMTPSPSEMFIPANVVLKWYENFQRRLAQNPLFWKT
UniProt Q9BUJ2: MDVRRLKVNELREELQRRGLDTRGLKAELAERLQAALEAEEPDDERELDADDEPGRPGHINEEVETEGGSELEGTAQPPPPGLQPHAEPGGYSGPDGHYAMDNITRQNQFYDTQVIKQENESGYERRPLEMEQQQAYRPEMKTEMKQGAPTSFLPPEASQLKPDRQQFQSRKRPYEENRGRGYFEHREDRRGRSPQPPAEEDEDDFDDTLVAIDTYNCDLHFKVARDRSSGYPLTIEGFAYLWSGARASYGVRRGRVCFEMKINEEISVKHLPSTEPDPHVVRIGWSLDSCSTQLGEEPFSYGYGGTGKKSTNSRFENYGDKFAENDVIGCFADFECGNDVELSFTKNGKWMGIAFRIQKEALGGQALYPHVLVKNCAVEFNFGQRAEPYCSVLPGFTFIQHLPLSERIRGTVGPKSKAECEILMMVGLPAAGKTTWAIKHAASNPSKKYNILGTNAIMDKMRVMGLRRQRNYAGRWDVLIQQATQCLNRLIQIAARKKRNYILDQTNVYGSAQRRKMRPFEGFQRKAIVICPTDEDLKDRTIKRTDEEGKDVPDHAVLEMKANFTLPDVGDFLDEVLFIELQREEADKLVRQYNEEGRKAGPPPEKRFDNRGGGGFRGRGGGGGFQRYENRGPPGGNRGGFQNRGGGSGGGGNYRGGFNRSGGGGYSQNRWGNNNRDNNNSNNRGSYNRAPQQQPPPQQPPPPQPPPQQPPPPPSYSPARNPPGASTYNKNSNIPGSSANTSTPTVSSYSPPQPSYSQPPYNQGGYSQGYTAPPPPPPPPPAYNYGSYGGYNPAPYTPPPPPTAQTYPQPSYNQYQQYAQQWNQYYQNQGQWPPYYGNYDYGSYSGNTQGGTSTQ
UniProt Q9BYK8: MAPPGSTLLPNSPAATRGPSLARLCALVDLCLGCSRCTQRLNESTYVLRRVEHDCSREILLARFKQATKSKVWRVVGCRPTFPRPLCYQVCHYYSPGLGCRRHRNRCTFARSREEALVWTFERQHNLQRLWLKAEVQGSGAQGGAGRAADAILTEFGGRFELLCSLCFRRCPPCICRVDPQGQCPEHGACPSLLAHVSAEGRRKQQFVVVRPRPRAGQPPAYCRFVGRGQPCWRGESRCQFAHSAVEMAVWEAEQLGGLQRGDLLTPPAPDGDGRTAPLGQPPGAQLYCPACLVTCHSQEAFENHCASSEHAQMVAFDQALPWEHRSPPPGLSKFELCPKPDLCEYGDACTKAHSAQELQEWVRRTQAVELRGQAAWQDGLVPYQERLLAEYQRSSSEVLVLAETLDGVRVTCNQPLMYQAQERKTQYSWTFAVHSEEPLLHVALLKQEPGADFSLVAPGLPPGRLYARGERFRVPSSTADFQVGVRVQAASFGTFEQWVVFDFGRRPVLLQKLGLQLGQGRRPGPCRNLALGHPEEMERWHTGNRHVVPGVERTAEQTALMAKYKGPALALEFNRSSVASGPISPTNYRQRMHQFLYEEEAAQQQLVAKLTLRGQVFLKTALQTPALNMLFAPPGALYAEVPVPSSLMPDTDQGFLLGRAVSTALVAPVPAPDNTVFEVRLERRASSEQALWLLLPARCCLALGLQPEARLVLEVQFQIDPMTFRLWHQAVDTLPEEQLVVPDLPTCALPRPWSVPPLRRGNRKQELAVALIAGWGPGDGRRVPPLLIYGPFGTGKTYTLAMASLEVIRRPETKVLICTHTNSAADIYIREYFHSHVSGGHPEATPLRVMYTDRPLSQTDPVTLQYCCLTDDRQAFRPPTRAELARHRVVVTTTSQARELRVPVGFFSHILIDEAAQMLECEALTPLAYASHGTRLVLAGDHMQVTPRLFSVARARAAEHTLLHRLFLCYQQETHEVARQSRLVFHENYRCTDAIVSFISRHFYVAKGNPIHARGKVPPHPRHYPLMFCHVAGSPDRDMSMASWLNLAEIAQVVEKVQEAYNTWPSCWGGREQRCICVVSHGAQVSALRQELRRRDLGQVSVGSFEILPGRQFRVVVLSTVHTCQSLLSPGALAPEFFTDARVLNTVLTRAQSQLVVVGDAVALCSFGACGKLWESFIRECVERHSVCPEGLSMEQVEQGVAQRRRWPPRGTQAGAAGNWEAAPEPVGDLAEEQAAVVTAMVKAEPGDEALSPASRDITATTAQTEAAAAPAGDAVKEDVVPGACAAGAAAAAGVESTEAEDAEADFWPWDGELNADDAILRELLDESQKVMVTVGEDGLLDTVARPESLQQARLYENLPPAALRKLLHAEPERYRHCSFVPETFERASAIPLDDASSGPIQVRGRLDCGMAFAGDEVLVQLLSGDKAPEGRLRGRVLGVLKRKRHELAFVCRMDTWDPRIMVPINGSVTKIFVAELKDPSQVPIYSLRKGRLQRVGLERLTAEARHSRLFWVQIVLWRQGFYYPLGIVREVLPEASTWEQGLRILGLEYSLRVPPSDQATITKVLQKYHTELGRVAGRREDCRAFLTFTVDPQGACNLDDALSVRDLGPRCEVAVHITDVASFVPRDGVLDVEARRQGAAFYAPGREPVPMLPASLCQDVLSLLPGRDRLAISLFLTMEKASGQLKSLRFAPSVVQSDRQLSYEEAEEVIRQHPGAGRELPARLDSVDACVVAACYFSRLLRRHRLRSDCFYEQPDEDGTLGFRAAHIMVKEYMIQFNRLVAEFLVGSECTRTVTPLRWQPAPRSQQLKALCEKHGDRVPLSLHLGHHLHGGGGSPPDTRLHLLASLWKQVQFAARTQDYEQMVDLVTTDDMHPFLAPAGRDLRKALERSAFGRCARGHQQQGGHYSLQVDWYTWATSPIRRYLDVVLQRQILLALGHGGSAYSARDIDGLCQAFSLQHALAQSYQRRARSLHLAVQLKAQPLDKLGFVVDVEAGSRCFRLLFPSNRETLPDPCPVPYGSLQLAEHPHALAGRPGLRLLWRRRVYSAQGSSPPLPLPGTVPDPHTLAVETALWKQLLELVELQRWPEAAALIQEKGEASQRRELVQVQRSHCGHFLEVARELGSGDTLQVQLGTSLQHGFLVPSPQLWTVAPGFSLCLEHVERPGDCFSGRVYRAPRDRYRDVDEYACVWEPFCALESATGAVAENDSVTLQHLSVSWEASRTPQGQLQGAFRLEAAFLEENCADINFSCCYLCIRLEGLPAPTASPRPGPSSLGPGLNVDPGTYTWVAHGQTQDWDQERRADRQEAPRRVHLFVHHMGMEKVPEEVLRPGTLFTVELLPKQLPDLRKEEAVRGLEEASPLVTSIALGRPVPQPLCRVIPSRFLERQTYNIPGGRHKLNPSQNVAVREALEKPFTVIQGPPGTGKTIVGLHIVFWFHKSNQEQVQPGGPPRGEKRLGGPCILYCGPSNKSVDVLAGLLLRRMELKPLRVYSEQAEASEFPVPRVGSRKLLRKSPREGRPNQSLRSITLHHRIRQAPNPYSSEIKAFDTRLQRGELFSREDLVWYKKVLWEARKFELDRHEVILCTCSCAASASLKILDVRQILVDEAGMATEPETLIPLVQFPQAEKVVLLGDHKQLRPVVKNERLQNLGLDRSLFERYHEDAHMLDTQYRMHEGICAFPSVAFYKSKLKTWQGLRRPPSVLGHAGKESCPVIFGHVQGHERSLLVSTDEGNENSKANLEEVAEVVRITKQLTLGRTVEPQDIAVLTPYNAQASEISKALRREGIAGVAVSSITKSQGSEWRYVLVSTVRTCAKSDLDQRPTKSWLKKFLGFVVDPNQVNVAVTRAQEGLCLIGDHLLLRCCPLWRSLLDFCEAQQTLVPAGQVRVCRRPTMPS
UniProt Q8WVV9: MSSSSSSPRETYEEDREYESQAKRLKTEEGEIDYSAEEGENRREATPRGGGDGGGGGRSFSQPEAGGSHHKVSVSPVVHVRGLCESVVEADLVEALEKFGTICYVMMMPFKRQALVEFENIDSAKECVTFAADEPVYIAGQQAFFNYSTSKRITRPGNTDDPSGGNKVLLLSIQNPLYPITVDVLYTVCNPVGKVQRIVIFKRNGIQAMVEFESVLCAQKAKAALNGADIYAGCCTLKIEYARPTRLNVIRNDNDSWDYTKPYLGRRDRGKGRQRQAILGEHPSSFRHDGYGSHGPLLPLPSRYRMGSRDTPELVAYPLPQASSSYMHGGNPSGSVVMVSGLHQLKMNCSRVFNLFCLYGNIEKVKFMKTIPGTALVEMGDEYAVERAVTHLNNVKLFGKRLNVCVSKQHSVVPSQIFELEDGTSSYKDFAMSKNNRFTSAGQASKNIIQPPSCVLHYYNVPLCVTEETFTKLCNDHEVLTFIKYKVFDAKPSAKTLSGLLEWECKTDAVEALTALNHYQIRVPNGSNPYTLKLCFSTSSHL
UniProt O95757: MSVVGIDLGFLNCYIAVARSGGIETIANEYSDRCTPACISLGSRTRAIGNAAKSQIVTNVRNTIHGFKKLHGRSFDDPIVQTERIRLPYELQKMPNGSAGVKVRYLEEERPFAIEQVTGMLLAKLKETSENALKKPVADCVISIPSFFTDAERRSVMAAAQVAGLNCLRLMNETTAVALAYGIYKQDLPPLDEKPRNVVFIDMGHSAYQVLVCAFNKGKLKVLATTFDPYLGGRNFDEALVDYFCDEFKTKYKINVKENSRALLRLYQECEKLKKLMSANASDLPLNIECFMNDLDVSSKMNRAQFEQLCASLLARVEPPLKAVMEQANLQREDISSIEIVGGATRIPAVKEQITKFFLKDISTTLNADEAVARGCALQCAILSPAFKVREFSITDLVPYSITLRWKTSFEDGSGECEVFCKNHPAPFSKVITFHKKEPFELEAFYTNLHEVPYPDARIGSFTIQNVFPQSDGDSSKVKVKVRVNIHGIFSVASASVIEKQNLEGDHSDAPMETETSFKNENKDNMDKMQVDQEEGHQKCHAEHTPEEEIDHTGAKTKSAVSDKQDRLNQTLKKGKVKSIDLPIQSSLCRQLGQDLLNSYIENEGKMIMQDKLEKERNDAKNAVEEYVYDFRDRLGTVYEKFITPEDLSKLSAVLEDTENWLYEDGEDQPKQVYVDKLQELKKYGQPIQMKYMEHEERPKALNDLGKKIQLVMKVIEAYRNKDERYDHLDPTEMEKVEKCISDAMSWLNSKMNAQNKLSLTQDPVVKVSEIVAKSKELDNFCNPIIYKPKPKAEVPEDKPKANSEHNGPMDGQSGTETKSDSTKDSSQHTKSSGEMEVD

Columns and labels:
Assay in all cases: log2 fold change, soluble protein after heating vs DMSO (PISA); higher = thermal stabilisation; K562 lysate, 10 uM; active = over 0.2 and 3.5 SD of the protein, either way, in both replicates (recomputed)
erlotinib = compound: C#Cc1cccc(Nc2ncnc3cc(OCCOC)c(OCCOC)cc23)c1 [erlotinib]
How it was run: (§1)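 Following dounce homogenisation of K562 pellets in PBS pH 7.4 with 1 mM MgCl2, crude extract at 1 mg/mL protein was incubated for 30 min with 10 μM compound. Aliquots were then heated for 3 min over 48°C-58°C and pooled, NP-40 was added to 0.5% at 4°C, and soluble protein was recovered as the supernatant at 21,000xg for 90 min. Channel-sum-equalised TMTpro 16plex LC-MS/MS quantified this protein. Each value, from duplicates, is a log-two fold change in thermal stability relative to solvent controls.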

[1] = compound: C/C(=N\NC(=O)C1=CC(=CC=C1)S(=O)(=O)N2CCOCC2)/C3=C(C=CC(=C3)Cl)O
How it was run: as §1

[2] = compound: C1=CC(=CC=C1C2=NC3=C(N2)C=C(C=C3)C(=O)N)OC4=CC=C(C=C4)Cl
How it was run: as §1

[3] = compound: C1=CC2=C(C=CC(=C2)/C=C\3/C(=O)NC(=NCC4=CC=CS4)S3)N=C1
How it was run: as §1

[4] = compound: C1=CC2=NC=CN=C2C=C1/C=C/3\C(=O)NC(=O)S3
How it was run: as §1

[5] = compound: C1=CC=C(C=C1)C2=NC(=C(N2)C3=CC=NC=C3)C4=CC(=C(C=C4)Cl)O
How it was run: as §1

[6] = compound: C1=CC=C2C(=C1)C3=NNC4=CC=CC(=C43)C2=O
How it was run: as §1

[7] = compound: C1CCN(C1)C(=O)NC2=CC=CC(=C2)NC3=NC=C(C(=N3)NCCC4=CN=CN4)Br
How it was run: as §1

[8] = compound: C1CN(CCC1(CC2=CC=C(C=C2)Cl)N)C3=NC=NC4=C3C=CN4
How it was run: as §1

IRAK-1-4 Inhibitor I = compound: C1COCCN1CCN2C3=CC=CC=C3N=C2NC(=O)C4=CC(=CC=C4)[N+](=O)[O-] [IRAK-1-4 Inhibitor I]
How it was run: as §1

Measured: log2 fold change

HERC1 (UniProt Q15751)
inactive: erlotinib 0.027 | [1] 0.018 | [2] 0.013 | [3] 0.006 | [4] 0.001 | [5] 0 | [6] -0.012 | [7] -0.015 | [8] 0.023 | IRAK-1-4 Inhibitor I -0.011

HNRNPR isoform 2 (UniProt O43390)
inactive: erlotinib 0.004 | [1] 0.023 | [2] -0.002 | [3] -0.004 | [4] -0.003 | [5] 0.009 | [6] 0.022 | [7] 0.007 | [8] -0.003 | IRAK-1-4 Inhibitor I -0.015

HSCB (UniProt Q8IWL3)
inactive: erlotinib -0.044 | [1] -0.209 | [2] -0.057 | [3] -0.14 | [4] -0.028 | [5] -0.08 | [6] -0.088 | [7] 0.009 | [8] -0.024 | IRAK-1-4 Inhibitor I -0.053

HNRNPAB isoform 3 (UniProt Q99729)
inactive: erlotinib -0.032 | [1] -0.214 | [2] 0.017 | [3] -0.007 | [4] 0.002 | [5] -0.001 | [6] -0.012 | [7] 0.003 | [8] 0 | IRAK-1-4 Inhibitor I 0.009

HNRNPF (UniProt P52597)
inactive: erlotinib -0.022 | [1] 0.028 | [2] 0.018 | [3] -0.012 | [4] -0.004 | [5] 0 | [6] -0.039 | [7] -0.016 | [8] 0.017 | IRAK-1-4 Inhibitor I 0.018

HIP1 (UniProt O00291)
inactive: erlotinib 0.013 | [1] -0.008 | [2] 0.042 | [3] 0 | [4] -0.026 | [5] -0.017 | [6] -0.048 | [7] 0.018 | [8] 0.018 | IRAK-1-4 Inhibitor I 0.009

HSDL2 (UniProt Q6YN16)
inactive: erlotinib -0.028 | [1] 0.034 | [2] -0.004 | [3] -0.018 | [4] 0.089 | [5] -0.019 | [6] -0.084 | [7] -0.066 | [8] 0.021 | IRAK-1-4 Inhibitor I -0.018

HS2ST1 (UniProt Q7LGA3)
inactive: erlotinib -0.062 | [1] -0.036 | [2] -0.001 | [3] 0.007 | [4] 0.002 | [5] -0.035 | [6] 0.07 | [7] -0.02 | [8] -0.009 | IRAK-1-4 Inhibitor I -0.004

HSD17B12 (UniProt Q53GQ0)
inactive: erlotinib -0.018 | [1] -0.026 | [2] -0.03 | [3] -0.018 | [4] 0.036 | [5] 0.006 | [6] -0.006 | [7] -0.022 | [8] 0.047 | IRAK-1-4 Inhibitor I 0.03

6 neighbouring records from above:
HSCB (UniProt Q8IWL3)
inactive: erlotinib -0.044 | [1] -0.209 | [2] -0.057 | [3] -0.14 | [4] -0.028 | [5] -0.08 | [6] -0.088 | [7] 0.009 | [8] -0.024 | IRAK-1-4 Inhibitor I -0.053

HNRNPAB isoform 3 (UniProt Q99729)
inactive: erlotinib -0.032 | [1] -0.214 | [2] 0.017 | [3] -0.007 | [4] 0.002 | [5] -0.001 | [6] -0.012 | [7] 0.003 | [8] 0 | IRAK-1-4 Inhibitor I 0.009

HNRNPF (UniProt P52597)
inactive: erlotinib -0.022 | [1] 0.028 | [2] 0.018 | [3] -0.012 | [4] -0.004 | [5] 0 | [6] -0.039 | [7] -0.016 | [8] 0.017 | IRAK-1-4 Inhibitor I 0.018

HIP1 (UniProt O00291)
inactive: erlotinib 0.013 | [1] -0.008 | [2] 0.042 | [3] 0 | [4] -0.026 | [5] -0.017 | [6] -0.048 | [7] 0.018 | [8] 0.018 | IRAK-1-4 Inhibitor I 0.009

HSDL2 (UniProt Q6YN16)
inactive: erlotinib -0.028 | [1] 0.034 | [2] -0.004 | [3] -0.018 | [4] 0.089 | [5] -0.019 | [6] -0.084 | [7] -0.066 | [8] 0.021 | IRAK-1-4 Inhibitor I -0.018

HS2ST1 (UniProt Q7LGA3)
inactive: erlotinib -0.062 | [1] -0.036 | [2] -0.001 | [3] 0.007 | [4] 0.002 | [5] -0.035 | [6] 0.07 | [7] -0.02 | [8] -0.009 | IRAK-1-4 Inhibitor I -0.004

Additional records.

HNRNPR (UniProt O43390)
inactive: erlotinib 0.072 | [1] -0.261 | [2] -0.064 | [3] 0.005 | [4] 0.029 | [5] 0.001 | [6] 0.032 | [7] 0.009 | [8] 0.15 | IRAK-1-4 Inhibitor I 0.027

HIRA (UniProt P54198)
inactive: erlotinib -0.034 | [1] 0.097 | [2] -0.002 | [3] 0.081 | [5] -0.032 | [6] -0.031 | [7] 0.094 | [8] -0.249 | IRAK-1-4 Inhibitor I 0.061

HELQ (UniProt Q8TDG4)
inactive: erlotinib -0.029 | [1] -0.023 | [2] 0.044 | [3] 0.07 | [4] 0.019 | [5] 0.004 | [6] 0.077 | [7] 0.056 | [8] 0.064 | IRAK-1-4 Inhibitor I -0.033

HIP1R (UniProt O75146)
inactive: erlotinib -0.009 | [1] 0.051 | [2] 0.012 | [3] 0.013 | [4] -0.033 | [5] 0.005 | [6] -0.038 | [7] -0.041 | [8] 0.008 | IRAK-1-4 Inhibitor I -0.018

HIKESHI (UniProt Q53FT3)
inactive: erlotinib -0.015 | [1] 0.173 | [2] -0.023 | [3] -0.073 | [4] 0.055 | [5] 0.002 | [6] 0.044 | [7] 0.039 | [8] 0.013 | IRAK-1-4 Inhibitor I -0.019

HEXD isoform 2 (UniProt Q8WVB3)
inactive: erlotinib 0.175 | [1] 0.096 | [2] 0.198 | [3] -0.163 | [4] 0.176 | [5] -0.221 | [6] -0.042 | [7] 0.039 | [8] -0.01 | IRAK-1-4 Inhibitor I -0.11

HRC (UniProt P23327)
inactive: erlotinib 0.014 | [1] -0.019 | [2] 0.061 | [3] 0 | [4] -0.049 | [5] 0.031 | [6] -0.049 | [7] 0.024 | [8] 0.032 | IRAK-1-4 Inhibitor I -0.001

HPS5 (UniProt Q9UPZ3)
inactive: erlotinib 0.093 | [1] 1.37 | [2] -0.096 | [3] 0.127 | [4] -0.061 | [5] -0.101 | [6] -0.027 | IRAK-1-4 Inhibitor I 0.088

HECW2 (UniProt Q9P2P5)
inactive: erlotinib -0.012 | [1] 0.009 | [2] -0.093 | [3] 0.013 | [5] -0.075 | [6] 0.023 | [7] 0.029 | [8] -0.118 | IRAK-1-4 Inhibitor I 0.082

HNRNPM (UniProt P52272)
inactive: erlotinib -0.015 | [1] -0.046 | [2] 0.004 | [3] -0.022 | [4] 0.051 | [5] -0.036 | [6] -0.039 | [7] -0.022 | [8] -0.003 | IRAK-1-4 Inhibitor I 0.005

HNRNPUL1 (UniProt Q9BUJ2)
inactive: erlotinib -0.039 | [1] 0.011 | [2] 0.002 | [3] -0.016 | [4] -0.023 | [5] -0.045 | [6] 0.03 | [7] 0.01 | [8] -0.02 | IRAK-1-4 Inhibitor I -0.032

HMGXB4 (UniProt Q9UGU5)
inactive: erlotinib 0.164 | [1] -0.024 | [2] 0.105 | [3] 0.036 | [6] -0.013 | [7] 0.093 | [8] 0.043

HELZ2 (UniProt Q9BYK8)
inactive: erlotinib 0.086 | [1] -0.171 | [2] -0.31 | [3] 0.106 | [6] 0.293

HIST2H2BF isoform 2 (UniProt Q5QNW6)
inactive: erlotinib -0.015 | [1] 0.07 | [2] -0.005 | [3] -0.057 | [4] -0.001 | [5] 0.022 | [6] 0.02 | [7] 0.069 | [8] -0.012 | IRAK-1-4 Inhibitor I -0.048

HNRNPD isoform 2 (UniProt Q14103)
inactive: erlotinib -0.001 | [1] -0.014 | [2] -0.022 | [3] -0.027 | [4] 0.049 | [5] 0.014 | [6] -0.023 | [7] 0.012 | [8] -0.009 | IRAK-1-4 Inhibitor I 0.018

HMGCS1 (UniProt Q01581)
inactive: erlotinib -0.003 | [1] -0.035 | [2] 0.006 | [3] -0.001 | [4] -0.005 | [5] 0.014 | [6] 0.004 | [7] 0.003 | [8] 0.012 | IRAK-1-4 Inhibitor I -0.009

HMOX2 (UniProt P30519)
inactive: erlotinib -0.049 | [1] 0.029 | [2] 0.04 | [3] -0.001 | [4] 0.016 | [5] -0.021 | [6] 0.028 | [7] -0.004 | [8] -0.038 | IRAK-1-4 Inhibitor I -0.046

HNRNPC (UniProt P07910)
inactive: erlotinib -0.007 | [1] 0.031 | [2] -0.016 | [3] -0.003 | [4] -0.021 | [5] 0.015 | [6] -0.017 | [7] 0.023 | [8] 0.002 | IRAK-1-4 Inhibitor I -0.016

HSP90B1 (UniProt P14625)
inactive: erlotinib -0.016 | [1] 0.004 | [2] 0.02 | [3] 0.002 | [4] -0.008 | [5] 0.008 | [6] 0.023 | [7] 0.01 | [8] -0.011 | IRAK-1-4 Inhibitor I 0.004

HSPA5 (UniProt P11021)
inactive: erlotinib -0.048 | [1] -0.012 | [2] -0.017 | [3] -0.014 | [4] -0.005 | [5] -0.012 | [6] 0.042 | [7] 0.045 | [8] -0.036 | IRAK-1-4 Inhibitor I -0.019

HNRNPLL (UniProt Q8WVV9)
inactive: erlotinib 0.007 | [1] 0 | [2] 0.011 | [3] 0.009 | [4] -0.017 | [5] -0.019 | [6] -0.035 | [7] 0.006 | [8] -0.009 | IRAK-1-4 Inhibitor I -0.026

HSPA4L (UniProt O95757)
inactive: erlotinib -0.004 | [1] 0.009 | [2] 0.017 | [3] 0.007 | [4] -0.027 | [5] 0.008 | [6] -0.023 | [7] -0.006 | [8] -0.003 | IRAK-1-4 Inhibitor I -0.023
